{"source": "patent US20220257722A1", "about": "“COMPOSITIONS AND METHODS OF TREATING AND PREVENTING SYSTEMIC COMPLICATIONS OF ACUTE ILLNESS” (United States Government As Represented By The Department …, priority 2019, published 2022)", "tested_on": "rat small intestine", "test": "LPS-induced small intestinal FD4 paracellular permeability in vivo (PV and arterial FD4)", "conditions": "t=90 min; inhibitor iv at t=-10 min or co-perfused", "description": "LPS treatment. Animals were treated with LPS (5 mg/kg, ip) once at 9 am. For the acute experiments, the animals were fasted overnight and were treated with LPS 1, 3, or 6 hr before the anesthesia for small intestinal perfusion of FD4 as described herein. For the 24-hr experiments, the animals fed ad libitum were treated with LPS 24 hr before anesthesia induction used for the perfusion study. As a control, saline was injected ip at the corresponding time before the experiments. The animal groups were expressed as control, LPS 1 hr, LPS 3 hr, LPS 6 hr, and LPS 24 hr.\nSmall intestinal perfusion. The small intestinal perfusion from the duodenum, and portal vein (PV) cannulation were prepared by the modified methods. Under isoflurane anesthesia (2%), the animal was placed […] on a recirculating heating block system (Summit Medical Systems, Bend, Oreg., USA) in order to maintain body temperature at 36-37° C. […]\nAppearance of FD4 into the PV and arterial plasma was assessed by fluorescence intensity measurement using a multi-mode microplate reader (Synergy-2, BioTek Instruments, Inc., Winooski, VT, USA). Fluorescence intensity in t=0 sample as background was subtracted from the fluorescence values measured in other time point samples. FD4 content was calculated according to the standard curve generated each time of measurement. […]", "note": "At least one compound was matched to its structure with a doubt left."}
{"smiles": "Nc1ncnc2c1c(-c1cccc(OCc3ccccc3)c1)cn2[C@H]1C[C@@H](CN2CCC2)C1", "note": "[NVP-AEW-541]", "values": [{"measurement": "Arterial FD4 levels in LPS 6 hr + TDG 6 hr rats", "result": "not affected"}]}
